Assay results reported in PubChem BioAssay AID264 (DTP/NCI, 2004).
The list does not hold the whole screen: it gathers some chemical classes. Other doses and runs of a compound may be missing. T/C gives the treated animals as a percentage of the vehicle group. Schedule codes are those of the source, taken here to give the interval after Q, in days (D) or hours (H), and the number of doses after X. Some entries hold several experiments; the values are given in rising order. Some T/C values carry the count of animals alive at the toxicity check; without a count or a note in brackets, all were alive then. Some complexes appear as separate parts, the way the source draws them; their charges need not add up. Some entries give survivors of the animals treated and no T/C: the source holds a T/C of zero for them, seemingly a mark for toxic or unscored doses. Survivors were counted at the toxicity check; its day is shown where the source gives one, and later deaths do not show.

System: nude mice, LX-1 lung xenograft intrarenal, tumor weight T/C
Test: NCI In Vivo Anticancer Drug Screen. Data for tumor model Human Lung LX-1 Xenograft (intrarenal inoculation) in NU/NU Swiss (nude) mice
Settings: T/C endpoint: mean tumor weight change, higher T/C = larger tumour; for T/C: evaluated on day 11
Protocol: The antitumor activity of compounds was measured in mice bearing transplantable tumors. Survival or tumor size were measured and the results are expressed as the measurement made in the treated group (T) divided by the measurement made in the vehicle treated control group (C). The tumor model used in this assay is Human Lung LX-1 Xenograft (intrarenal inoculation) in NU/NU Swiss (nude) mice

[1] = dose: 100.0 mg/kg/injection, schedule: Q01DX010 (sc), vehicle: Klucel (hydroxypropylcellulose) (HPC)
[2] = dose: 200.0 mg/kg/injection, schedule: Q01DX010 (sc), vehicle: Klucel (hydroxypropylcellulose) (HPC)
[3] = dose: 400.0 mg/kg/injection, schedule: Q01DX010 (sc), vehicle: Klucel (hydroxypropylcellulose) (HPC)
[4] = dose: 800.0 mg/kg/injection, schedule: Q01DX010 (sc), vehicle: Klucel (hydroxypropylcellulose) (HPC)
[5] = dose: 150.0 mg/kg/injection, schedule: Q04DX003 (sc), vehicle: Klucel (hydroxypropylcellulose) (HPC)
[6] = dose: 300.0 mg/kg/injection, schedule: Q04DX003 (sc), vehicle: Klucel (hydroxypropylcellulose) (HPC)
[7] = dose: 50.0 mg/kg/injection, schedule: Q01DX010 (sc), vehicle: saline with Tween-80
[8] = dose: 100.0 mg/kg/injection, schedule: Q01DX010 (sc), vehicle: saline with Tween-80
[9] = dose: 200.0 mg/kg/injection, schedule: Q01DX010 (sc), vehicle: saline with Tween-80
[10] = dose: 400.0 mg/kg/injection, schedule: Q01DX010 (sc), vehicle: saline with Tween-80
[11] = dose: 25.0 mg/kg/injection, schedule: Q01DX010 (sc), vehicle: saline with Tween-80

For ClP1(Cl)=NP(Cl)(Cl)=NP(Cl)(Cl)=NP(Cl)(Cl)=N1, the T/C [1] was 57 % of control, the T/C [2] was 65 % of control and the T/C [3] was 87 % of control. For the same compound, the T/C [4] was 41 % of control.
With ICCN(CCI)c1cccc2ccccc12 the T/C (dose: 37.5 mg/kg/injection, schedule: Q04DX003 (sc), vehicle: Klucel (hydroxypropylcellulose) (HPC)) was 90 % of control, the T/C (dose: 75.0 mg/kg/injection, schedule: Q04DX003 (sc), vehicle: Klucel (hydroxypropylcellulose) (HPC)) was 103 % of control and the T/C [5] was 85 % of control. The T/C [6] was 64 % of control.
For [Au].[C-]#N.[C-]#N, the T/C (dose: 10.0 mg/kg/injection, schedule: Q04DX003 (sc), vehicle: suspension in saline) was 70 % of control, the T/C (dose: 20.0 mg/kg/injection, schedule: Q04DX003 (sc), vehicle: suspension in saline) was 56 % of control [5 of 6 alive on day 11] and the survivor count (dose: 40.0 mg/kg/injection, schedule: Q04DX003 (sc), vehicle: suspension in saline) was 1 of 6 on day 11.
In the case of NC(=O)c1[nH]cnc1/N=N\N(CCCl)CCCl, the T/C [7] is reported as 59 % of control, the T/C [8] is reported as 38 % of control and the survivor count [9] is reported as 1 of 3 on day 11. For the same compound, the survivor count [10] was 0 of 3 on day 11.
CC1(C)CN1P(=O)(Nc1ncccn1)N1CC1(C)C (stereo not drawn) was tested, and the T/C (dose: 200.0 mg/kg/injection, schedule: Q04DX003 (sc), vehicle: saline) was 88 % of control, the T/C (dose: 400.0 mg/kg/injection, schedule: Q04DX003 (sc), vehicle: saline) was 77 % of control and the T/C (dose: 800.0 mg/kg/injection, schedule: Q04DX003 (sc), vehicle: saline) was 55 % of control. The survivor count (dose: 1600.0 mg/kg/injection, schedule: Q04DX003 (sc), vehicle: saline) was 0 of 6 on day 11.
In the case of CCCNC(=O)c1ccc(N(CCCl)CCCl)cc1, the T/C [5] is reported as 76 % of control, the T/C [6] is reported as 139 % of control and the T/C (dose: 600.0 mg/kg/injection, schedule: Q04DX003 (sc), vehicle: Klucel (hydroxypropylcellulose) (HPC)) is reported as 129 % of control [5 of 6 alive on day 11]. The T/C (dose: 1200.0 mg/kg/injection, schedule: Q04DX003 (sc), vehicle: Klucel (hydroxypropylcellulose) (HPC)) was 81 % of control [5 of 6 alive on day 11].
For CC(=O)OC(SC(OC(C)=O)C(Cl)(Cl)Cl)C(Cl)(Cl)Cl (stereo not drawn), the T/C [1] was 116 % of control, the T/C [2] was 143 % of control and the T/C [3] was 97 % of control. For the same compound, the T/C [4] was 101 % of control.
In the case of ClC1CSC1, the T/C (dose: 300.0 mg/kg/injection, schedule: Q04DX003 (sc), vehicle: saline with Tween-80) is reported as 112 % of control, the T/C (dose: 600.0 mg/kg/injection, schedule: Q04DX003 (sc), vehicle: saline with Tween-80) is reported as 118 % of control and the T/C (dose: 1200.0 mg/kg/injection, schedule: Q04DX003 (sc), vehicle: saline with Tween-80) is reported as 72 % of control. For the same compound, the T/C (dose: 2400.0 mg/kg/injection, schedule: Q04DX003 (sc), vehicle: saline with Tween-80) was 57 % of control.
For Nc1cc([As]=O)ccc1O (stereo not drawn), the T/C (dose: 6.25 mg/kg/injection, schedule: Q01DX010 (sc), vehicle: saline with Tween-80) was 123 % of control, the T/C (dose: 12.5 mg/kg/injection, schedule: Q01DX010 (sc), vehicle: saline with Tween-80) was 162 % of control and the T/C [11] was 103 and 118 % of control. The T/C [7] was 117 and 165 % of control, the survivor count [8] was 0 of 3 on day 11 and the survivor count [9] was 0 of 3 on day 11.
For [Au+].[Au+].c1ccc([PH+](c2ccccc2)c2ccccc2)cc1.c1ccc([PH+](c2ccccc2)c2ccccc2)cc1.n1n[n-]c(-c2nnn[n-]2)n1, the T/C [11] was 56 % of control, the T/C [7] was 84 % of control [2 of 2 alive on day 11] and the T/C [8] was 77 % of control [2 of 2 alive on day 11]. For the same compound, the T/C [9] was 41 % of control [2 of 2 alive on day 11], the T/C [10] was 87 % of control [2 of 2 alive on day 11] and the survivor count (dose: 800.0 mg/kg/injection, schedule: Q01DX010 (sc), vehicle: saline with Tween-80) was 1 of 3 on day 11.
